Here are results for 16 compounds from PubChem BioAssay AID248 (DTP/NCI, 2004).

The assay deals with L1210 leukemia ip in BDF1 mice, survival T/C. Kind of assay: NCI In Vivo Anticancer Drug Screen. Data for tumor model L1210 Leukemia (intraperitoneal) in B6D2F1 (BDF1) mice. Conditions: T/C endpoint: mean survival time, higher T/C = longer survival.
[1] abbreviates: dose: 200.0 mg/kg/injection, schedule: Q01DX009 (ip), vehicle: saline with Tween-80.
Setting [2] is: dose: 400.0 mg/kg/injection, schedule: Q04DX003 (ip), vehicle: saline with Tween-80.
Setting [3] is: dose: 25.0 mg/kg/injection, schedule: Q04DX003 (ip), vehicle: saline.
[4] abbreviates: dose: 50.0 mg/kg/injection, schedule: Q04DX003 (ip), vehicle: saline.
Where [5] appears, read: dose: 200.0 mg/kg/injection, schedule: Q04DX003 (ip), vehicle: saline with Tween-80.
The mark [6] stands for this setting: dose: 400.0 mg/kg/injection, schedule: Q01DX001 (ip), vehicle: saline.
Where [7] appears, read: dose: 200.0 mg/kg/injection, schedule: Q01DX001 (ip), vehicle: saline.

The list does not hold the whole screen: it is rich in T/C values a quarter to a half above the control, in often repeated tests (any T/C) and in doses without a T/C. Further doses and runs are listed elsewhere. T/C: endpoint of the treated group in % of that of the vehicle group. Some entries give survivors of the animals treated and no T/C: the source holds a T/C of zero for them, seemingly a mark for toxic or unscored doses. Some doses without a T/C left all or most animals alive at the check, yet need not have been tolerated: the source hardly ever lists a survival T/C far under the control, and the zero likely stands for such cases as well. Counts of survivors are from the toxicity check (mostly the fifth day) where no day follows; animals may have died later. Schedules are NCI's codes, taken here to give the interval after Q, in days (D) or hours (H), and the number of doses after X. For survival time, this PubChem deposit counts one and a half times the control or more as active, and values a quarter to a half above the control carry no call in these data; other NCI protocols may use other cut-offs. Some doses were run more than once; their values stand side by side, smallest first.

For `CC(=O)/C(=C\c1ccccc1)CNC1CCCCC1`, the survivor count was 0 of 3 (dose: 25.0 mg/kg/injection, schedule: Q01DX001 (ip), vehicle: saline with Tween-80); 0 of 3 (dose: 50.0 mg/kg/injection, schedule: Q01DX001 (ip), vehicle: saline with Tween-80); 0 of 3 (dose: 100.0 mg/kg/injection, schedule: Q01DX001 (ip), vehicle: saline with Tween-80).
Consider `CC(C(c1ccccc1)c1ccc(Cl)cc1)[N+](=O)[O-]` (centres undefined), for which the T/C (dose: 50.0 mg/kg/injection, schedule: Q01DX009 (ip), vehicle: saline with Tween-80) was 125 % of control. Further, the survivor count under setting [1] was 4 of 6; the survivor count under setting [2] is given as 2 of 6; the survivor count (dose: 400.0 mg/kg/injection, schedule: Q04DX003 (ip), vehicle: saline) is 6 of 6.
As for `COc1ccc(C2C=C(C)Oc3c2c(=O)oc2ccccc32)cc1OC` (centres undefined), the survivor count (dose: 100.0 mg/kg/injection, schedule: Q01DX009 (ip), vehicle: water) was 1 of 6; the survivor count (dose: 200.0 mg/kg/injection, schedule: Q01DX009 (ip), vehicle: water) is 1 of 6; the survivor count (dose: 400.0 mg/kg/injection, schedule: Q01DX009 (ip), vehicle: water) is recorded as 0 of 6.
Take `COc1ccc(N2C(=O)C3C(C2=O)C2c4ccccc4C3C3CCCCN32)cc1` (centres undefined): the survivor count (dose: 150.0 mg/kg/injection, schedule: Q01DX001 (ip), vehicle: other) is on record as 1 of 6 and the survivor count (dose: 300.0 mg/kg/injection, schedule: Q01DX001 (ip), vehicle: other) is given as 0 of 6.
With `CC1CN1C1=C(Br)C(=O)C(N2CC2C)=C(Br)C1=O` (centres undefined), the survivor count by setting is: (dose: 25.0 mg/kg/injection, schedule: Q01DX009 (ip), vehicle: Klucel (hydroxypropylcellulose) (HPC)) 0 of 6; (dose: 50.0 mg/kg/injection, schedule: Q04DX003 (ip), vehicle: saline with Tween-80) 0 of 6.
On to `CCN(CC)/N=C/CC(C)Nc1ccnc2cc(Cl)ccc12` (centres undefined), for which the survivor count is, setting by setting: (dose: 12.5 mg/kg/injection, schedule: Q01DX009 (ip), vehicle: acetone) 2 of 6; under setting [3], 0 of 6; under setting [4], 0 of 6.
`COc1ccc(CCl)cc1C(=O)O`: for the setting “dose: 300.0 mg/kg/injection, schedule: Q01DX001 (ip), vehicle: saline”, the survivor count is recorded as 4 of 6.
In the case of `COc1ccc2c[n+](C)c3c4cc(OC)c(OC)cc4ccc3c2c1`, the survivor count runs as follows: (dose: 100.0 mg/kg/injection, schedule: Q04DX003 (ip), vehicle: saline with Tween-80) 1 of 3; under setting [5], 1 of 3; under setting [2], 0 of 3.
For `CN(N)C(=S)c1ccc(Cl)cc1`, the survivor count under setting [6] is reported as 3 of 6.
As to `c1ccc([P+](c2ccccc2)(c2ccccc2)C2CC2)cc1`, the survivor count is 0 of 6 (dose: 80.0 mg/kg/injection, schedule: Q01DX001 (ip), vehicle: saline); 0 of 4 (dose: 100.0 mg/kg/injection, schedule: Q01DX001 (ip), vehicle: saline); 0 of 4 under setting [7]; 0 of 4 under setting [6].
Consider `[Cl][Pt+2][Cl].[NH-]c1ccc(Cl)cc1[NH-]`, for which the T/C by setting is: under setting [3], 126 % of control; under setting [4], 134 and 138 % of control.
As for `O=[N+]([O-])c1cc2c(cc1Br)nc(Cl)c1cc(Br)ccc12`, under “dose: 400.0 mg/kg/injection, schedule: Q01DX009 (ip), vehicle: Klucel (hydroxypropylcellulose) (HPC)”, the survivor count is recorded as 3 of 6.
For `NC(=O)C(N)Cc1ccc(OCc2ccccc2)c(OCc2ccccc2)c1` (centres undefined), the survivor count (dose: 400.0 mg/kg/injection, schedule: Q01DX009 (ip), vehicle: saline with Tween-80) is 3 of 6.
Consider `CC(=O)Oc1ccc(OC(C)=O)c2c1C(=O)C=CC2=O`, for which the survivor count runs as follows: (dose: 12.5 mg/kg/injection, schedule: Q04DX002 (ip), vehicle: alcohol) 0 of 3; (dose: 25.0 mg/kg/injection, schedule: Q04DX002 (ip), vehicle: alcohol) 1 of 3; under setting [7], 3 of 6; under setting [6], 0 of 6.
In the case of `O=[N+]([O-])c1cccc(/C=C/c2ccc(S(=O)(=O)F)cc2)c1`, under setting [2], the survivor count is 3 of 6.
For `COc1cccc2c(Cl)c(CCl)c(C)nc12`, the survivor count by setting is: (dose: 100.0 mg/kg/injection, schedule: Q01DX009 (ip), vehicle: saline with Tween-80) 3 of 6; under setting [1], 0 of 6; under setting [5], 3 of 6; under setting [2], 1 of 6.
